Literature values in patent US9249306B2, “Quenched dendrimeric dyes for florescence detection” (Carnegie Mellon University, priority 2009, dated 2016).
At least one compound was matched to its structure with a doubt left.

Conditions: cited from earlier work

CCN1/C(=C\C=C\C2=[N+](CCCCCC(=O)O)c3ccc(S(=O)(=O)O)cc3C2(C)C)C(C)(C)c2cc(S(=O)(=O)[O-])ccc21 [Cy3]
absorbance ε: 150,000 M^−1 cm^−1
